# The other results are listed elsewhere or left out.
# B1: SspB (Streptococcus gordonii), P16952 (protein)
# chain: MKNKKEVYGFRKSKVAKTLCGAVLGTALIAFADKAVFADEVTETTSTSTVEVATTGNPATNLPEAQGEMSQVAKESQAKAGSKESALPVEVSSADLDKAVADAKSAGVKVVQDETKDKGTATTATDNAQKQDEIKSDYAKQAEEIKTTTEAYKKEVAAHQAETDKINAENKAADDKYQKDLKSHQEEVEKINTANATAKAEYEAKLAQYQKDLATVKKANEDSQQDYQNKLSAYQTELARVQKANAEAKEAYEKAVKENTAKNEALKVENEAIKQRNETAKATYEAAMKQYEADLAAIKKANEDNDADYQAKLAAYQTELARVQKANAEAKEAYDKAVKENTAKNTAIQAENEAIKQRNETAKATYDAAVKKYEADLAAVKQANATNEADYQAKLAAYQTELARVQKANADAKATYEKAVEDNKAKNAAIKAENEEIKQRNAVAKTDYEAKLAKYEADLAKYKKEFAAYTAALAEAESKKKQDGYLSEPRSQSLNFKSEPNAIRTIDSSVHQYGQQELDALVKSWGISPTNPDRKKSRAYSYFNAINSNNTYAKLVLEKDKPVDVTYTGLKNSSFNGKKISKVVYTYTLKETGFNDGTKMTMFASSDPTVTAWYNDYFTSTNINVKVKFYDEEGQLMNLTGGLVNFSSLNRGNGSGAIDKDAIESVRNFNGRYIPISGSSIKIHENNSAYADSSNAEKSLGARWNTSEWDTTSSPNNWYGAIVGEITQSEISFNMASSKSGNIWFAFNSNINAIGVPTKPVAPTAPTQPMYETEKPLEPAPVAPSYENEPTPPVKTPDQPEPSKPEEPTYETEKPLEPAPVAPSYENEPTPPVKTPDQPEPSKPEEPNYETEKPLEPAPVAPSYENEPTPPVKIPDQPEPSKPEEPTYDPLPTPPLAPTPKQLPTPPVVPTVHFHYSSLLAQPQINKEIKNEDGVDIDRTLVAKQSIVKFELKTEALTAGRPKTTSFVLVDPLPTGYKFDLDATKAASTGFDTTYDEASHTVTFKATDETLATYNADLTKPVETLHPTVVGRVLNDGATYTNNFTLTVNDAYGIKSNVVRVTTPGKPNDPDNPNNNYIKPTKVNKNKEGLNIDGKEVLAGSTNYYELTWDLDQYKGDKSSKEAIQNGFYYVDDYPEEALDVRPDLVKVADEKGNQVSGVSVQQYDSLEAAPKKVQDLLKKANITVKGAFQLFSADNPEEFYKQYVATGTSLVITDPMTVKSEFGKTGGKYENKAYQIDFGNGYATEVVVNNVPKITPKKDVTVSLDPTSENLDGQTVQLYQTFNYRLIGGLIPQNHSEELEDYSFVDDYDQAGDQYTGNYKTFSSLNLTMKDGSVIKAGTDLTSQTTAETDATNGIVTVRFKEDFLQKISLDSPFQAETYLQMRRIAIGTFENTYVNTVNKVAYASNTVRTTTPIPRTPDKPTPIPTPKPKDPDKPETPKEPKVPSPKVEDPSAPIPVSVGKELTTLPKTGTNDATYMPYLGLAALVGFLGLGLAKRKED
# What was measured:
# Assay in all cases: glycan array binding signal (z-score within array); higher = stronger binding
# Conditions in all cases: glycan notation: IUPAC condensed, linker removed
# [1] = biological target: Gal(b1-4)GlcNAc(a1-6)Gal(b1-4)GlcNAc
# Procedure, shortened: (§1)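 The Consortium for Functional Glycomics database supplied 3228 glycan arrays, of which those lacking an available protein sequence were dropped. The binding signal, a within-array Z-score, was averaged across arrays of the same protein sequence and across linkers. Negative scores can be read as non-binding.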
# [2] = biological target: Gal(b1-4)GlcNAc(b1-2)Man(a1-3)Man(b1-4)GlcNAc(b1-4)GlcNAc
# Procedure, shortened: as §1
# [3] = biological target: Gal(b1-4)GlcNAc(b1-2)Man(a1-3)[Gal(b1-4)GlcNAc(b1-2)Man(a1-6)]Man(b1-4)GlcNAc(b1-4)GlcNAc
# Procedure, shortened: as §1
# [4] = biological target: Gal(b1-4)GlcNAc(b1-2)Man(a1-3)[Gal(b1-4)GlcNAc(b1-2)Man(a1-6)]Man(b1-4)GlcNAc(b1-4)[Fuc(a1-6)]GlcNAc
# Procedure, shortened: as §1
# [5] = biological target: Gal(b1-4)GlcNAc(b1-2)Man(a1-3)[GlcNAc(b1-2)Man(a1-6)]Man(b1-4)GlcNAc(b1-4)GlcNAc
# Procedure, shortened: as §1
# [6] = biological target: Gal(b1-4)GlcNAc(b1-2)Man(a1-3)[Man(a1-6)]Man(b1-4)GlcNAc(b1-4)GlcNAc
# Procedure, shortened: as §1
# [7] = biological target: Gal(b1-4)GlcNAc(b1-2)Man(a1-6)Man(b1-4)GlcNAc(b1-4)GlcNAc
# Procedure, shortened: as §1
# [8] = biological target: Gal(b1-4)GlcNAc(b1-2)Man(a1-6)[GlcNAc(b1-2)Man(a1-3)]Man(b1-4)GlcNAc(b1-4)GlcNAc
# Procedure, shortened: as §1
# [9] = biological target: Gal(b1-4)GlcNAc(b1-2)Man(a1-6)[Man(a1-3)]Man(b1-4)GlcNAc(b1-4)GlcNAc
# Procedure, shortened: as §1
# [10] = biological target: Gal(b1-4)GlcNAc(b1-2)[Gal(b1-4)GlcNAc(b1-4)]Man(a1-3)[Gal(b1-4)GlcNAc(b1-2)Man(a1-6)]Man(b1-4)GlcNAc(b1-4)GlcNAc
# Procedure, shortened: as §1
# [11] = biological target: Gal(b1-4)GlcNAc(b1-2)[Gal(b1-4)GlcNAc(b1-4)]Man(a1-3)[Gal(b1-4)GlcNAc(b1-2)[Gal(b1-4)GlcNAc(b1-6)]Man(a1-6)]Man(b1-4)GlcNAc(b1-4)GlcNAc
# Procedure, shortened: as §1
# [12] = biological target: Gal(b1-4)GlcNAc(b1-3)Gal(b1-3)GlcNAc
# Procedure, shortened: as §1
# [13] = biological target: Gal(b1-4)GlcNAc(b1-3)Gal(b1-4)Glc
# Procedure, shortened: as §1
# [14] = biological target: Gal(b1-4)GlcNAc(b1-3)Gal(b1-4)GlcNAc
# Procedure, shortened: as §1
# [15] = biological target: Gal(b1-4)GlcNAc(b1-3)Gal(b1-4)GlcNAc(b1-3)Gal(b1-4)GlcNAc
# Procedure, shortened: as §1
# [16] = biological target: Gal(b1-4)GlcNAc(b1-3)Gal(b1-4)[Fuc(a1-3)]GlcNAc(b1-3)Gal(b1-4)[Fuc(a1-3)]GlcNAc
# Procedure, shortened: as §1
# [17] = biological target: Gal(b1-4)GlcNAc(b1-3)GalNAc
# Procedure, shortened: as §1
# [18] = biological target: Gal(b1-4)GlcNAc(b1-3)[Gal(b1-4)GlcNAc(b1-6)]Gal(b1-4)GlcNAc
# Procedure, shortened: as §1
# [19] = biological target: Gal(b1-4)GlcNAc(b1-3)[Gal(b1-4)GlcNAc(b1-6)]GalNAc
# Procedure, shortened: as §1
# [20] = biological target: Gal(b1-4)GlcNAc(b1-3)[GlcNAc(b1-6)]Gal(b1-4)GlcNAc
# Procedure, shortened: as §1
# [21] = biological target: Gal(b1-4)GlcNAc(b1-6)Gal(b1-4)GlcNAc
# Procedure, shortened: as §1
# [22] = biological target: Gal(b1-4)GlcNAc(b1-6)GalNAc
# Procedure, shortened: as §1
# [23] = biological target: Gal(b1-4)GlcNAc(b1-6)[Gal(b1-3)]GalNAc
# Procedure, shortened: as §1
# Gal3S(b1-3)GalNAc = biological target: Gal3S(b1-3)GalNAc
# Procedure, shortened: as §1
# Gal3S(b1-3)GlcNAc = biological target: Gal3S(b1-3)GlcNAc
# Procedure, shortened: as §1
# [24] = biological target: Gal3S(b1-3)[Fuc(a1-4)]GlcNAc
# Procedure, shortened: as §1
# Gal3S(b1-4)Glc = biological target: Gal3S(b1-4)Glc
# Procedure, shortened: as §1
# Gal3S(b1-4)Glc6S = biological target: Gal3S(b1-4)Glc6S
# Procedure, shortened: as §1
# Gal3S(b1-4)GlcNAc = biological target: Gal3S(b1-4)GlcNAc
# Procedure, shortened: as §1
# Gal3S(b1-4)GlcNAc6S = biological target: Gal3S(b1-4)GlcNAc6S
# Procedure, shortened: as §1
# [25] = biological target: Gal3S(b1-4)[Fuc(a1-3)]Glc
# Procedure, shortened: as §1
# [26] = biological target: Gal3S(b1-4)[Fuc(a1-3)]Glc6S
# Procedure, shortened: as §1
# Gal3S4S(b1-4)GlcNAc = biological target: Gal3S4S(b1-4)GlcNAc
# Procedure, shortened: as §1
# Gal3S6S(b1-4)GlcNAc = biological target: Gal3S6S(b1-4)GlcNAc
# Procedure, shortened: as §1
# Gal3S6S(b1-4)GlcNAc6S = biological target: Gal3S6S(b1-4)GlcNAc6S
# Procedure, shortened: as §1
# Gal4S(b1-4)GlcNAc = biological target: Gal4S(b1-4)GlcNAc
# Procedure, shortened: as §1
# Gal4S6S(b1-4)GlcNAc = biological target: Gal4S6S(b1-4)GlcNAc
# Procedure, shortened: as §1
# Gal6S(b1-4)Glc = biological target: Gal6S(b1-4)Glc
# Procedure, shortened: as §1
# Gal6S(b1-4)Glc6S = biological target: Gal6S(b1-4)Glc6S
# Procedure, shortened: as §1
# Gal6S(b1-4)GlcNAc = biological target: Gal6S(b1-4)GlcNAc
# Procedure, shortened: as §1
# Gal6S(b1-4)GlcNAc6S = biological target: Gal6S(b1-4)GlcNAc6S
# Procedure, shortened: as §1
# GalNAc(a1-3)Gal = biological target: GalNAc(a1-3)Gal
# Procedure, shortened: as §1
# GalNAc(a1-3)GalNAc = biological target: GalNAc(a1-3)GalNAc
# Procedure, shortened: as §1
# [27] = biological target: GalNAc(a1-3)GalNAc(a1-3)Gal(a1-4)Gal(b1-4)GlcNAc
# Procedure, shortened: as §1
# GalNAc(b1-3)Gal = biological target: GalNAc(b1-3)Gal
# Procedure, shortened: as §1
binder,measurement,setting,value
B1,glycan array binding signal (z-score),[1],0.695
same,glycan array binding signal (z-score),[2],-0.803
same,glycan array binding signal (z-score),[3],-0.803
same,glycan array binding signal (z-score),[4],-0.46
same,glycan array binding signal (z-score),[5],-0.867
same,glycan array binding signal (z-score),[6],1.01
same,glycan array binding signal (z-score),[7],-0.385
same,glycan array binding signal (z-score),[8],0.126
same,glycan array binding signal (z-score),[9],0.917
same,glycan array binding signal (z-score),[10],1.08
same,glycan array binding signal (z-score),[11],-0.878
same,glycan array binding signal (z-score),[12],1.04
same,glycan array binding signal (z-score),[13],-0.77
same,glycan array binding signal (z-score),[14],-0.814
same,glycan array binding signal (z-score),[15],-0.604
same,glycan array binding signal (z-score),[16],1.4
same,glycan array binding signal (z-score),[17],0.26
same,glycan array binding signal (z-score),[18],0.02
same,glycan array binding signal (z-score),[19],5.73
same,glycan array binding signal (z-score),[20],-0.783
same,glycan array binding signal (z-score),[21],-0.291
same,glycan array binding signal (z-score),[22],0.085
same,glycan array binding signal (z-score),[23],-1.35
same,glycan array binding signal (z-score),Gal3S(b1-3)GalNAc,1
same,glycan array binding signal (z-score),Gal3S(b1-3)GlcNAc,-0.711
same,glycan array binding signal (z-score),[24],-1.75
same,glycan array binding signal (z-score),Gal3S(b1-4)Glc,-0.398
same,glycan array binding signal (z-score),Gal3S(b1-4)Glc6S,-0.598
same,glycan array binding signal (z-score),Gal3S(b1-4)GlcNAc,-0.398
same,glycan array binding signal (z-score),Gal3S(b1-4)GlcNAc6S,-0.73
same,glycan array binding signal (z-score),[25],0.344
same,glycan array binding signal (z-score),[26],-0.011
same,glycan array binding signal (z-score),Gal3S4S(b1-4)GlcNAc,-0.545
same,glycan array binding signal (z-score),Gal3S6S(b1-4)GlcNAc,0.347
same,glycan array binding signal (z-score),Gal3S6S(b1-4)GlcNAc6S,-1.04
same,glycan array binding signal (z-score),Gal4S(b1-4)GlcNAc,-0.002
same,glycan array binding signal (z-score),Gal4S6S(b1-4)GlcNAc,-2.25
same,glycan array binding signal (z-score),Gal6S(b1-4)Glc,0.165
same,glycan array binding signal (z-score),Gal6S(b1-4)Glc6S,0.321
same,glycan array binding signal (z-score),Gal6S(b1-4)GlcNAc,1.27
same,glycan array binding signal (z-score),Gal6S(b1-4)GlcNAc6S,-1.28
same,glycan array binding signal (z-score),GalNAc(a1-3)Gal,0.111
same,glycan array binding signal (z-score),GalNAc(a1-3)GalNAc,-0.125
same,glycan array binding signal (z-score),[27],0.985
same,glycan array binding signal (z-score),GalNAc(b1-3)Gal,-0.556

# Laid out differently: results already given
binder	measurement	setting	value
B1	glycan array binding signal (z-score)	[21]	-0.291
same	glycan array binding signal (z-score)	[22]	0.085
same	glycan array binding signal (z-score)	[23]	-1.35
same	glycan array binding signal (z-score)	Gal3S(b1-3)GalNAc	1
same	glycan array binding signal (z-score)	Gal3S(b1-3)GlcNAc	-0.711
same	glycan array binding signal (z-score)	[24]	-1.75
same	glycan array binding signal (z-score)	Gal3S(b1-4)Glc	-0.398
same	glycan array binding signal (z-score)	Gal3S(b1-4)Glc6S	-0.598

# — the supplement of paper PMC8728848
